Data reported in US20240043533A1.
Changes are numbered by the printed parent chain. No constants are given. Whether binding was seen depends on the method and setting. Some binding calls cover weakened binding; strength is not graded here. Values belong to the binder of their own block, whether it stands above or below them.

Protein sequences, listed by entry. Tags and fused reporters are not part of them. Residues count along the entry.
UniProt Q8NHL6, residues 24-650: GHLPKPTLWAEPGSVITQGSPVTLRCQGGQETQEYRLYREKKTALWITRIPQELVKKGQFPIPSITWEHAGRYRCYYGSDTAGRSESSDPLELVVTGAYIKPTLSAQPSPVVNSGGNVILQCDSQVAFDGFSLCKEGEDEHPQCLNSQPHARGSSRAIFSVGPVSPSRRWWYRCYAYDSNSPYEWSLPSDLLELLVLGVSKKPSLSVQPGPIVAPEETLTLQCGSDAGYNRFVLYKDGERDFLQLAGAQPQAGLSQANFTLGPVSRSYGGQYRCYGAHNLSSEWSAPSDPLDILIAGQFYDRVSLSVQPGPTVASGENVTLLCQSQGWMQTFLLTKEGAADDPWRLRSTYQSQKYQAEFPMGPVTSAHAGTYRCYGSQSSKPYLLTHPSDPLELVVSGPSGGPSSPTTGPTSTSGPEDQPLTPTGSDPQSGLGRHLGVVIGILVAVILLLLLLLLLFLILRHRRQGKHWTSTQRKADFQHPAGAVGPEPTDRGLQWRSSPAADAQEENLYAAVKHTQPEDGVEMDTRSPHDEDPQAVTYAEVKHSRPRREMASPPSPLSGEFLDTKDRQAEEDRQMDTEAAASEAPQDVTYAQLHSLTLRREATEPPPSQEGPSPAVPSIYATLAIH

Columns and labels:
LILRB1 (human) = LILRB1 (human) (UniProt Q8NHL6); experiment: FACS on cells expressing human LILRB1, labeled anti-mouse Fc secondary antibody
[1] = target: Cyno LILRB5 (Macaca fascicularis); experiment: FACS on cells expressing cyno LILRB5, labeled anti-mouse Fc secondary antibody

B1: anti-ILT3 antibody 53F10 (antibody, V domains shown)
VH: EVQVVESGGGLVKPGGSLKLSCAASGFTFSDYGMHWVRQAPEKGLEWVAYISTGIITVYYADTVKGRFTMSRDNAKNTLFLQMTSLRSEDTAIYYCARADGRGAMDYWGQGTSVIVSS
VL: DIQMTQTTSSLSASLGDRVTISCRASQDISNFLNWYQQKPDGTVTLLIYYTSRLHSGVPSRFSGSGSGTDYSLTISNLEQEDFATYFCQQGNTLPWTFGGGTKLEIK
binding (LILRB1 (human)): no binding (tested: log [Ab] about -7.2 M (about 6e-8 M))

binding [1]: binds
B2: anti-ILT3 antibody 16C5 (antibody, V domains shown)
VH: EVQLQQSGPELVKPGASVKISCKASGYTFTDYNMDWVKQSHGKSLEWIGYIYPSNGGTGYNQKFKSKATLTVDKSSNTAYMELHSLTSEDSAVYYCARVPYYDYLYYYAMDYWGQGTSVTVSS
VL: QIVLSQSPAILSASPGEKVTMACRASSSVSFMHWYQQKPGSSPQPWIYATSNLASGVPARFSGSGSGTSYSLTISRVEAEDAATYYCQQWSTNPYMYTFGGGTKLEIK
binding (LILRB1 (human)): no binding (tested: log [Ab] about -7.2 M (about 6e-8 M))

B3: anti-ILT3 antibody 48A6 (antibody, V domains shown)
VH: EVQLVESGGDLMKPGGSLKLSCAASGFTFSSYGMSWVRQTPDKRLEWVATISSGGTYTFYPDSVKGRFTISRDNAKNTLYLQMSSLKSEDTAMYYCARRGWLLHYYAMDYWGQGTSVTVSS
VL: NIVLTQSPASLAVSLGQRATISCRPSESVDSFGNSFMHWFQQKPGQPPKLLIYLSSKLESGVPARFSGSGSRTDFTLTIDPVEADDAATYYCQQHNEDPFTFGSGTKLEIK
binding (LILRB1 (human)): no binding (tested: log [Ab] about -7.2 M (about 6e-8 M))

B4: anti-ILT3 antibody 5A7 (antibody, V domains shown)
VH: EVKLVESGGGLVKPGGSLKLSCAASGFTFSSYGMSWVRQTPEKRLEWVATISGGGSYTNYPDSVKGRLTISRDNAKKNLYLEMSSLRSEDTALYYCARREWRMTLYAMDYWGQGTSVTVSS
VL: B3 VL with P25A, F32Y, F40Y, P47A, S55T, K57N, H95N
binding (LILRB1 (human)): no binding (tested: log [Ab] about -7.2 M (about 6e-8 M))
